According to the supplement of paper PMC6078165:

System: MDAMB468
Test: relative JC-1 red fluorescence (viability) vs pre-drug, coculture with fibroblast (fraction); higher = more viable cancer cells
Protocol: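 JC-1 labelled TNBC cells cocultured 1:1 (1,500 cells each) with CellTrace Violet stained primary or stromal fibroblasts in 384-well plates in FluoroBrite medium, treated with one of 42 anticancer drugs at 0.1, 1, 10 or 100 uM. JC-1 red fluorescence (mitochondrial integrity in cancer cells only) was read by plate reader every 8 h for 72 h. Values are normalised to each well's pre-drug value. The stock of one drug was tenfold lower, so its dose labels may be too high.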

N#Cc1ccc(C(c2ccc(C#N)cc2)n2cncn2)cc1 [Letrozole]
relative JC-1 red fluorescence
Settings | 8 h | 16 h | 24 h | 32 h | 40 h | 48 h | 56 h | 64 h | 72 h
0.1 µM, coculture fibroblast: C12385 | 0.866 | 0.784 | 0.726 | 0.6625 | 0.605 | 0.59467 | 0.5541 | 0.519 | 0.515
0.1 µM, coculture fibroblast: H6013 | 0.8273 | 0.80383 | 0.7475 | 0.7278 | 0.6837 | 0.6862 | 0.6675 | 0.6508 | 0.604
0.1 µM, coculture fibroblast: H6019 | 0.8217 | 0.8101 | 0.7931 | 0.755 | 0.71 | 0.693 | 0.646 | 0.608 | 0.589
0.1 µM, coculture fibroblast: H6076 | 0.939 | 0.969 | 0.8677 | 0.8415 | 0.772 | 0.7444 | 0.6903 | 0.6645 | 0.678
0.1 µM, coculture fibroblast: H6231 | 0.8435 | 0.969 | 0.818 | 0.818 | 0.756 | 0.739 | 0.693 | 0.661 | 0.654
0.1 µM, coculture fibroblast: HADF | 0.886 | 0.824 | 0.7875 | 0.7778 | 0.7135 | 0.7157 | 0.678 | 0.674 | 0.641
0.1 µM, coculture fibroblast: HCFa | 0.851 | 0.829 | 0.771 | 0.733 | 0.667 | 0.656 | 0.609 | 0.567 | 0.527
0.1 µM, coculture fibroblast: HCPF | 0.8932 | 0.944 | 0.8629 | 0.8409 | 0.777 | 0.7509 | 0.69 | 0.66901 | 0.6447
0.1 µM, coculture fibroblast: HHSteC | 0.878 | 0.831 | 0.7808 | 0.744 | 0.685 | 0.683 | 0.618 | 0.593 | 0.543
0.1 µM, coculture fibroblast: HMF | 0.871 | 0.962 | 0.878 | 0.849 | 0.78 | 0.748 | 0.697 | 0.681 | 0.658
0.1 µM, coculture fibroblast: HPFa | 0.935 | 0.8656 | 0.806 | 0.746 | 0.698 | 0.685 | 0.617 | 0.595 | 0.528
0.1 µM, coculture fibroblast: HUF | 0.9045 | 0.808 | 0.7498 | 0.688 | 0.625 | 0.604 | 0.559 | 0.536 | 0.516
0.1 µM, coculture fibroblast: Hs5 | 0.781 | 0.959 | 0.88 | 0.847 | 0.776 | 0.734 | 0.689 | 0.653 | 0.653
0.1 µM, coculture fibroblast: Hs27A | 0.85682 | 0.8104 | 0.758 | 0.754 | 0.694 | 0.696 | 0.653 | 0.632 | 0.601
0.1 µM, coculture fibroblast: Hs343T | 0.906 | 0.977 | 0.917 | 0.8868 | 0.8095 | 0.7825 | 0.724 | 0.7122 | 0.6844
0.1 µM, coculture fibroblast: WS1 | 0.821 | 0.7648 | 0.703 | 0.632 | 0.573 | 0.539 | 0.5044 | 0.4727 | 0.4617
1 µM, coculture fibroblast: C12385 | 0.8733 | 0.7998 | 0.776 | 0.724 | 0.6949 | 0.68 | 0.646 | 0.623 | 0.611
1 µM, coculture fibroblast: H6013 | 0.894 | 0.854 | 0.816 | 0.812 | 0.802 | 0.815 | 0.797 | 0.787 | 0.736
1 µM, coculture fibroblast: H6019 | 0.811 | 0.766 | 0.755 | 0.709 | 0.67 | 0.6572 | 0.6101 | 0.5814 | 0.554
1 µM, coculture fibroblast: H6076 | 0.932 | 0.929 | 0.862 | 0.8608 | 0.798 | 0.791 | 0.744 | 0.724 | 0.776
1 µM, coculture fibroblast: H6231 | 0.822 | 0.93883 | 0.835 | 0.7916 | 0.749 | 0.725 | 0.671 | 0.6356 | 0.626
1 µM, coculture fibroblast: HADF | 0.913 | 0.833 | 0.82 | 0.815 | 0.767 | 0.758 | 0.722 | 0.701 | 0.65
1 µM, coculture fibroblast: HCFa | 0.8646 | 0.797 | 0.735 | 0.707 | 0.619 | 0.608 | 0.556 | 0.509 | 0.457
1 µM, coculture fibroblast: HCPF | 0.879 | 0.958 | 0.865 | 0.853 | 0.797 | 0.768 | 0.72 | 0.71 | 0.701
1 µM, coculture fibroblast: HHSteC | 0.958 | 0.949 | 0.923 | 0.912 | 0.881 | 0.892 | 0.833 | 0.812 | 0.752
1 µM, coculture fibroblast: HMF | 0.842 | 0.955 | 0.865 | 0.834 | 0.771 | 0.7377 | 0.6783 | 0.65119 | 0.626
1 µM, coculture fibroblast: HPFa | 0.951 | 0.92844 | 0.8745 | 0.81 | 0.781 | 0.779 | 0.711 | 0.67 | 0.588
1 µM, coculture fibroblast: HUF | 0.898 | 0.7986 | 0.7315 | 0.6526 | 0.597 | 0.561 | 0.5217 | 0.493 | 0.467
1 µM, coculture fibroblast: Hs5 | 0.768 | 0.9782 | 0.90751 | 0.874 | 0.8087 | 0.7758 | 0.739 | 0.7015 | 0.714
1 µM, coculture fibroblast: Hs27A | 0.846 | 0.798 | 0.781 | 0.793 | 0.74 | 0.732 | 0.695 | 0.67 | 0.62
1 µM, coculture fibroblast: Hs343T | 0.88 | 0.947 | 0.866 | 0.851 | 0.785 | 0.779 | 0.726 | 0.709 | 0.687
1 µM, coculture fibroblast: WS1 | 0.8709 | 0.801 | 0.75 | 0.69 | 0.662 | 0.63 | 0.592 | 0.568 | 0.556

Values are relative to the signal before dosing, not to a vehicle control; the signal also falls without drug.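 Labels refer to human fibroblasts, largely primary: uterine (C12385, HUF), lung (H6013), bone (Hs27A), adrenal (HADF), skin (WS1), plus mammary HMF and breast cancer-associated Hs343T. Cancer lines are basal-like or mesenchymal-like triple-negative breast cancer. The paper counts as hits responses shifting over 3x the replicate standard deviation. The tissue of the other fibroblasts is not given here.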
